No constants are given. Whether binding was seen depends on the method and setting. Binding seen in cells or lysates may run through a third protein. Some entries that bind do so weakly or less than the wild type.
Molecular target: HECT, UBA and WWE domain containing 1 (HUWE1) (mouse (endogenous in murine CD4+ T cells)) (UniProt Q7TMY8)
Experiment: co-IP; co-immunoprecipitation of endogenous proteins from activated CD4+ T cells; which protein was precipitated not given

Chains of the proteins cited; added tags and fusions are not shown.
UniProt P41233: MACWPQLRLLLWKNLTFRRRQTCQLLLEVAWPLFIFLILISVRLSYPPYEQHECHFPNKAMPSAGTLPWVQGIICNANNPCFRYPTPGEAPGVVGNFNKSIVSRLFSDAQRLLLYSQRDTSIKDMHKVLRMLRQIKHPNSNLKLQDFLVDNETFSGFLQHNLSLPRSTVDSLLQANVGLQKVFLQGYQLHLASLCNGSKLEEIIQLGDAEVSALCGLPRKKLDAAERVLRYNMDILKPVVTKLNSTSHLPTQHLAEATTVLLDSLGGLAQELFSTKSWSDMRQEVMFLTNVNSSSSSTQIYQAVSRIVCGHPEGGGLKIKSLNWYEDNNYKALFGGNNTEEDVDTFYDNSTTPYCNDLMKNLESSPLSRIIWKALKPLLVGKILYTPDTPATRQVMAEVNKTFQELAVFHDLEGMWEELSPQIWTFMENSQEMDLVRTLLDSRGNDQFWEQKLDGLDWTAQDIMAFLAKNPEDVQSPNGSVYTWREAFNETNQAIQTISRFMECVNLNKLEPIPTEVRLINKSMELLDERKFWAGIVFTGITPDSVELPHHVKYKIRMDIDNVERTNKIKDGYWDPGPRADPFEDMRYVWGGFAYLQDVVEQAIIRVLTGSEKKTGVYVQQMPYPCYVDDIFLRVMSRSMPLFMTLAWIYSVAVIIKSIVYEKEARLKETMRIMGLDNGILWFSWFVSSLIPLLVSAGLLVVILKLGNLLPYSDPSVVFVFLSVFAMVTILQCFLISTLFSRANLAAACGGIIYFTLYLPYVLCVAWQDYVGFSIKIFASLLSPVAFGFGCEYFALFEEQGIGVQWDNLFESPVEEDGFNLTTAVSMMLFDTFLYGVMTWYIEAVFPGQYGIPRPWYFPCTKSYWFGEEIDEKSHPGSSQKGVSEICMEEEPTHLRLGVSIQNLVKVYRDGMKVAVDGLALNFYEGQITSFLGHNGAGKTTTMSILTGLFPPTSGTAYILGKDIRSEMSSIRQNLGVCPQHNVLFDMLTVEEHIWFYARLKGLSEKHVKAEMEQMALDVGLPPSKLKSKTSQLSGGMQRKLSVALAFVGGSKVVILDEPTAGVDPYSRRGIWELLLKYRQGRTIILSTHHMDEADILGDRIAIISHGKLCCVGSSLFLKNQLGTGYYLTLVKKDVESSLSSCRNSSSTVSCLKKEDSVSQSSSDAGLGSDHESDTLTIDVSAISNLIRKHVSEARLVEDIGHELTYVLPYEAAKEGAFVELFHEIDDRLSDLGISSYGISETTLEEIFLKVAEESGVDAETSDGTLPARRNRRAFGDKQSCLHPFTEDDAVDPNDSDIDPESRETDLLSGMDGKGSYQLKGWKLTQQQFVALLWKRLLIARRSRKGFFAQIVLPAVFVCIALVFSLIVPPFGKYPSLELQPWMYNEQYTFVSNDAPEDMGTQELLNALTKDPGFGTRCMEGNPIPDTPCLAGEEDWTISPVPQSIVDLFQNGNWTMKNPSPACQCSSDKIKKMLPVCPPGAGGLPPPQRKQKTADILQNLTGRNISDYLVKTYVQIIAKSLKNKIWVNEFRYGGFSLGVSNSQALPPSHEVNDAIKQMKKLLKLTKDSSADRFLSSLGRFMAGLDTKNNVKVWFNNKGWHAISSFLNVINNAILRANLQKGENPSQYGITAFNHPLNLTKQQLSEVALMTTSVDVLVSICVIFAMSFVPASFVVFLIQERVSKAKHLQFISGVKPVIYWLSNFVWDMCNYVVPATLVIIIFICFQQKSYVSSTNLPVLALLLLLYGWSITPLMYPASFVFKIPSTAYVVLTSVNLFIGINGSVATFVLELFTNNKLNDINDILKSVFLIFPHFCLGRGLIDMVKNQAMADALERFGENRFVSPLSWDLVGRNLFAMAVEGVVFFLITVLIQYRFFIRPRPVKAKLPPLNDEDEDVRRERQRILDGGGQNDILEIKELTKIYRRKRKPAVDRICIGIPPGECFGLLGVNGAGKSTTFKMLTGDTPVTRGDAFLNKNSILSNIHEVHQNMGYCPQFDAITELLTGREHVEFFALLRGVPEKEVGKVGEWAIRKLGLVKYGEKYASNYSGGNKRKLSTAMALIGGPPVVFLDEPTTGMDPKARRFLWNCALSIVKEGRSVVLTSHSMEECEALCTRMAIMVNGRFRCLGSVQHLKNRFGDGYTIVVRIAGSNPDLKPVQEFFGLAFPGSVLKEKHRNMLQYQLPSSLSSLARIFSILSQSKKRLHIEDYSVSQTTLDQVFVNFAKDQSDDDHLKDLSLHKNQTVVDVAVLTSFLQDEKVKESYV

binding	Molecule
binds	ATP-binding cassette transporter A1 (ABCA1) (from UniProt P41233 1-2261)
no binding	Scavenging Receptor SR-BI (receptor, UniProt Q61009 1-509) MGGSSRARWVALGLGALGLLFAALGVVMILMVPSLIKQQVLKNVRIDPSSLSFGMWKEIPVPFYLSVYFFEVVNPNEVLNGQKPVVRERGPYVYREFRQKVNITFNDNDTVSFVENRSLHFQPDKSHGSESDYIVLPNILVLGGSILMESKPVSLKLMMTLALVTMGQRAFMNRTVGEILWGYDDPFVHFLNTYLPDMLPIKGKFGLFVGMNNSNSGVFTVFTGVQNFSRIHLVDKWNGLSKIDYWHSEQCNMINGTSGQMWAPFMTPESSLEFFSPEACRSMKLTYNESRVFEGIPTYRFTAPDTLFANGSVYPPNEGFCPCRESGIQNVSTCRFGAPLFLSHPHFYNADPVLSEAVLGLNPNPKEHSLFLDIHPVTGIPMNCSVKMQLSLYIKSVKGIGQTGKIEPVVLPLLWFEQSGAMGGKPLSTFYTQLVLMPQVLHYAQYVLLGLGGLLLLVPIICQLRSQEKCFLFWSGSKKGSQDKEAIQAYSESLMSPAAKGTVLQEAKL

Source: paper PMC10330700
